Paper PMC8620709
These are yes or no findings as the source states them, for the method shown. In cells and extracts the contact can be indirect. For some assays here: A result given as binding can be weak or reduced; the word gives no strength.

Experiments:
[1] = molecular target: T1, cytosolic phospholipase A2 alpha (mouse (endogenous in spinal cord)) (UniProt P47713); test: condition: only spinal cord lysates of 6 weeks old mice; co-IP; spinal cord lysates (100 µg) of 6 weeks old pre-symptomatic SOD1^G93A mice; IP buffer (50 mM Tris-HCl pH 7.4, 150 mM NaCl, 1 mM EDTA, 0.5% Nonidet P-40); overnight with cPLA2α antibodies cross-linked to magnetic beads; blot for cPLA2α and mutant SOD1
T1 sequence: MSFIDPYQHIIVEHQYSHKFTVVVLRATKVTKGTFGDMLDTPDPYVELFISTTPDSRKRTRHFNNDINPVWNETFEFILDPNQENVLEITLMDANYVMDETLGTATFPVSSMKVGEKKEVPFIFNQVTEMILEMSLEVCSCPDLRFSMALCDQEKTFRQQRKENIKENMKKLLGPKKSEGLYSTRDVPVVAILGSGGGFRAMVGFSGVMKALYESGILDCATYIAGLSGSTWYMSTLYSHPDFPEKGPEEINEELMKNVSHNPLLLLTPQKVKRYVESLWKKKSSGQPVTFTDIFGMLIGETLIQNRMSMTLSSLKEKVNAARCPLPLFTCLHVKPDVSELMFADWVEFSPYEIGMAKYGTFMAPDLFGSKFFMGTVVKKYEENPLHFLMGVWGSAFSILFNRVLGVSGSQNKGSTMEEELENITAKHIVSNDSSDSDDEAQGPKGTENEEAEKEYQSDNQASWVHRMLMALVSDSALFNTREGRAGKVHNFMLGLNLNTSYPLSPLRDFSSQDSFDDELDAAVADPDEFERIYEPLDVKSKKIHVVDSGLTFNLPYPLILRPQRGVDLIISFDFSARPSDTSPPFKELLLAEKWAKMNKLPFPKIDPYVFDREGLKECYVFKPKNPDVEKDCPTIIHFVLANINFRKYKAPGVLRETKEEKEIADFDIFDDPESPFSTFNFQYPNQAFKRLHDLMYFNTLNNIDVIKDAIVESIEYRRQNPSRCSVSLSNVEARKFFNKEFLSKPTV

[2] = molecular target: T1, cytosolic phospholipase A2 alpha (mouse (endogenous in spinal cord)); test: co-IP; spinal cord lysates (100 µg) of SOD1^G93A mice at disease onset (13 weeks), symptomatic stage (18 weeks) or end stage; IP buffer (50 mM Tris-HCl pH 7.4, 150 mM NaCl, 1 mM EDTA, 0.5% Nonidet P-40); overnight with cPLA2α antibodies cross-linked to magnetic beads; blot for cPLA2α and mutant …

binding [1]: no binding
binding [2]: binds
Substance: mutant SOD1^G93A (human Cu/Zn superoxide dismutase with G93A)
